# Data published in PubChem BioAssay AID1439 (NMMLSC, 2008).
# Amino acid sequences for entries named in this document (tags omitted).
# UniProt P09471, whole entry, looked up: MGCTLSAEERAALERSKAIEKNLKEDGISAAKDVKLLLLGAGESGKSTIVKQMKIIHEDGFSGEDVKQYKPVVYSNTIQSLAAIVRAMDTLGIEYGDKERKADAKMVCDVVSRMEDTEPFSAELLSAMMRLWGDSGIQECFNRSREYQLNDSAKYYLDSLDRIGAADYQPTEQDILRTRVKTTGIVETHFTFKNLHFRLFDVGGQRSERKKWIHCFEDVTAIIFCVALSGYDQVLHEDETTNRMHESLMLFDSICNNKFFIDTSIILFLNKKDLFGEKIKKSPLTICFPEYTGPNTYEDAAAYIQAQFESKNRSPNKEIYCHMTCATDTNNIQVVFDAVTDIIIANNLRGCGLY
# Hit rate of the full screen: of about 220,000 compounds, about 770 (0.35%) were called active. Inconclusive means that the source gave no clear call. Such entries were picked first, then a sample of the others. Rule as the data show it: active = binding response below about 49% or above about 150%; inconclusive = no clear call, values can overlap the other calls; inactive = in between.
# Molecular target: Guanine nucleotide-binding protein G(o) subunit alpha (Homo sapiens) (UniProt P09471)
# Test: RGS7-Galphao binding modulators, primary screen, biochemical, multiplexed bead flow cytometry (AID 1439);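 also: fluorescent Galphao held in activated GDP-AlF4 state binding bead-coupled RGS7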
# Conditions: at 10 µM, actives lie on both sides
row,SMILES,binding response (% of control)
1,CCOc1ccccc1NC(=O)NCc1ccccc1F,inconclusive: 80.3%
2,CC1=C(C(=O)OC(C)C)C(c2cccs2)C(C(=O)OC(C)C)=C(C)N1,inactive: 104%
3,COc1ccc(-n2cc(-c3ccc(Cl)cc3)[nH]c2=S)cc1,inconclusive: 106%
4,Cc1ccc(S(=O)(=O)N(C)C)cc1NC(=O)COC(=O)c1sc2cc(Cl)ccc2c1Cl,inconclusive: 156%
5,O=C(OCc1cccc2ccccc12)c1ccc2c(=O)[nH]c(CN3CCOCC3)nc2c1,active: -54.5%
6,CC1(C)Cc2nc3sc4c(SCC(=O)O)ncnc4c3cc2CO1,inconclusive: 163%
7,CC(=O)Nc1ccc(-c2nnn(CC(=O)c3ccc(F)cc3)n2)cc1Cl,inconclusive: 113%
8,CC(C)(Oc1ccc(Cl)cc1)C(=O)NCc1ccc(S(N)(=O)=O)cc1,inconclusive: 103%
9,Cc1[nH]nc2c1C(CC(C)C)C(C#N)=C(N)O2 (stereo not given),inconclusive: 148%
10,COc1ccc(C(CC(=O)N2CCOCC2)c2c(OC)cc(OC)c3c(-c4ccccc4)cc(=O)oc23)cc1 (stereo not given),inconclusive: 89.2%
11,Cc1cc(C)n(C(=O)/C=C/c2cccs2)n1,inconclusive: 99.5%
12,O=C(COC(=O)CCc1ccc(S(=O)(=O)N2CCOCC2)cc1)Nc1cccc(Cl)c1,inactive: 99.8%
13,COc1ccc(-c2nn(-c3ccccc3)cc2/C=N/Nc2cccc(C(=O)O)c2)cc1,inconclusive: 115%
14,CCOc1ccc(N=C(C)C2=C(O)c3ccccc3C2=O)cc1,inconclusive: 95.2%
15,Cc1ccc(C2(C)NC(=O)N(CC(=O)NCCC3=CCCCC3)C2=O)cc1 (stereo not given),inactive: 100%
16,CC(OC(=O)c1ccc2c(=O)n3c(nc2c1)CCCCC3)C(N)=O (stereo not given),inactive: 98.9%
17,CCOC(=O)C1=C(O)/C(=C\c2cc(C)n(-c3ccc(F)cc3)c2C)N=C1C,inactive: 94.8%
18,CCOC(=O)C1CCCN(C(=O)c2cccc(S(=O)(=O)N3CC(C)OC(C)C3)c2)C1 (stereo not given),inconclusive: -135%
19,Cc1cc(C)c(C(=O)COC(=O)c2ccc(NC(=O)CC#N)cc2)cc1C,inconclusive: 105%
20,Cc1cc(Cl)ccc1OCCCC(=O)NCCCn1ccnc1,inconclusive: 41%
21,Cc1nc([N+](=O)[O-])c(Br)n1CC(=O)c1ccc2ccccc2c1,inactive: 108%
22,CC(C)(C)NC(=O)NC(=O)COC(=O)CCC1CCCC1,inconclusive: 81.6%
23,N#Cc1cc(-c2ccccc2)cnc1Sc1ccc(Cl)cc1,inactive: 101%
24,O=C(N/N=C/c1ccccc1[N+](=O)[O-])c1cccs1,inconclusive: 128%
25,O=C(NCc1ccccc1)c1onc(CSc2ccc(Cl)cc2)c1C(=O)NCc1ccccc1,inconclusive: 79.1%

# 2 of these compounds in a different format:
row	SMILES	binding response (% of control)
12	O=C(COC(=O)CCc1ccc(S(=O)(=O)N2CCOCC2)cc1)Nc1cccc(Cl)c1	inactive: 99.8%
16	CC(OC(=O)c1ccc2c(=O)n3c(nc2c1)CCCCC3)C(N)=O (stereo not given)	inactive: 98.9%
